Data from the supplement of paper PMC7666118.
The list shows a part of the results.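 Rule for the calls: active = dose-dependent thermal stabilisation significant by F-test of dose-response against flat model at 10% FDR; inactive = not significant.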

By UniProt entry, the sequences of proteins in these tests, tags left out. Where a name states a change or a piece, a line headed by the entry shows the natural chain unless it says otherwise.
UniProt Q8N302: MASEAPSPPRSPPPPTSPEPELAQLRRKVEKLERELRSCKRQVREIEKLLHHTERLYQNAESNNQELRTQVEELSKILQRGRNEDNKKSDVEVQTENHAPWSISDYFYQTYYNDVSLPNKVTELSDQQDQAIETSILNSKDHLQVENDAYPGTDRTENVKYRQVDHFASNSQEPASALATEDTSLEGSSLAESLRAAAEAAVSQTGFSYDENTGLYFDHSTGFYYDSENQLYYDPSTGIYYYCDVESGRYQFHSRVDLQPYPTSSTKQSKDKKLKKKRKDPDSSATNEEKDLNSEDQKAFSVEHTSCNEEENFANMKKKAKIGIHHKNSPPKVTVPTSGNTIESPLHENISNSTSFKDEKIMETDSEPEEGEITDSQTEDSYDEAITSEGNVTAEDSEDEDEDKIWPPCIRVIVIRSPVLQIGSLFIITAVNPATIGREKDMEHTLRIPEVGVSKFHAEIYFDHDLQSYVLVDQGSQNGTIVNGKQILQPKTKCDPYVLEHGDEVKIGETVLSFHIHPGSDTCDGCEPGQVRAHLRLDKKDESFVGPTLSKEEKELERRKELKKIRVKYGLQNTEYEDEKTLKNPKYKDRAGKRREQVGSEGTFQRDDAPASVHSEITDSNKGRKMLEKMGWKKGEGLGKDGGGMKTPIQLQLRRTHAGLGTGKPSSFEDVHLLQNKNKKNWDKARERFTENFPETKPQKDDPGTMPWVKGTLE
UniProt A1A4S6: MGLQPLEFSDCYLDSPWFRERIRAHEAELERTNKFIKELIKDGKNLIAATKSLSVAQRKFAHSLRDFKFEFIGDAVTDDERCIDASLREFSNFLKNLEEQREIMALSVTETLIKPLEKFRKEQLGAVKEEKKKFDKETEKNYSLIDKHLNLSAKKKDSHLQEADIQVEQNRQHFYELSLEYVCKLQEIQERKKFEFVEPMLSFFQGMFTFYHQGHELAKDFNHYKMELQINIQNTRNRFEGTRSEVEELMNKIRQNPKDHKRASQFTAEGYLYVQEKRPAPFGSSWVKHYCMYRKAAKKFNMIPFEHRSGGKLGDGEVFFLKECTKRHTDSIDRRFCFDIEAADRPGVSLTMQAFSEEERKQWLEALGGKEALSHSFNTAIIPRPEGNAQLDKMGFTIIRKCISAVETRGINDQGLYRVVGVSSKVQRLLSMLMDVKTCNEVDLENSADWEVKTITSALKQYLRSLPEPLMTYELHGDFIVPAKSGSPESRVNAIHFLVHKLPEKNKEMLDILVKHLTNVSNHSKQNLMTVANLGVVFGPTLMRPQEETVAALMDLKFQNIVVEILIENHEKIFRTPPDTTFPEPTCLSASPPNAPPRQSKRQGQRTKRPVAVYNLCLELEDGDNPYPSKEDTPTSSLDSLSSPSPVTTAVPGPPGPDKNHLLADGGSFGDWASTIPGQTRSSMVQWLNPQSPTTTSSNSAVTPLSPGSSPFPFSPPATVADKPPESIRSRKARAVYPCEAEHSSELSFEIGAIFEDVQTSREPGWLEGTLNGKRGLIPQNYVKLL
UniProt Q96SZ5, whole entry: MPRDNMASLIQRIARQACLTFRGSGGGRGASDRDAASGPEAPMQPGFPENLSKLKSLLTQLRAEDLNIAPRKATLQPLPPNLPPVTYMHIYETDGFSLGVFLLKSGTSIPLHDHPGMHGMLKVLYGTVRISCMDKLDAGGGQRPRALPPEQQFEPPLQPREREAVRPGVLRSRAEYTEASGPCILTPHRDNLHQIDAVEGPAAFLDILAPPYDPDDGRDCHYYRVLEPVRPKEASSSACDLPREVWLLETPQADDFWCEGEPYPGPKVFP
UniProt Q96CW1: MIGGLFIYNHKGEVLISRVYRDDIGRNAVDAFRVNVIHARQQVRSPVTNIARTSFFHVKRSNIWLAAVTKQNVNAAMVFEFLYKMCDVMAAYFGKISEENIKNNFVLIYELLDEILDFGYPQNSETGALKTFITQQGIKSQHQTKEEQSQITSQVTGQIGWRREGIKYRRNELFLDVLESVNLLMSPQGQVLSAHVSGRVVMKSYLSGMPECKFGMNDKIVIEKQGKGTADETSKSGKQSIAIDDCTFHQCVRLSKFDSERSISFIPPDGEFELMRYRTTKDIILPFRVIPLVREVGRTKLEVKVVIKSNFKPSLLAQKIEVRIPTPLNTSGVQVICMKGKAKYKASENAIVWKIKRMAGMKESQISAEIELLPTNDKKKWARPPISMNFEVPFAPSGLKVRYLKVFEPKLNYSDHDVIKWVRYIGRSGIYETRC
UniProt P49748: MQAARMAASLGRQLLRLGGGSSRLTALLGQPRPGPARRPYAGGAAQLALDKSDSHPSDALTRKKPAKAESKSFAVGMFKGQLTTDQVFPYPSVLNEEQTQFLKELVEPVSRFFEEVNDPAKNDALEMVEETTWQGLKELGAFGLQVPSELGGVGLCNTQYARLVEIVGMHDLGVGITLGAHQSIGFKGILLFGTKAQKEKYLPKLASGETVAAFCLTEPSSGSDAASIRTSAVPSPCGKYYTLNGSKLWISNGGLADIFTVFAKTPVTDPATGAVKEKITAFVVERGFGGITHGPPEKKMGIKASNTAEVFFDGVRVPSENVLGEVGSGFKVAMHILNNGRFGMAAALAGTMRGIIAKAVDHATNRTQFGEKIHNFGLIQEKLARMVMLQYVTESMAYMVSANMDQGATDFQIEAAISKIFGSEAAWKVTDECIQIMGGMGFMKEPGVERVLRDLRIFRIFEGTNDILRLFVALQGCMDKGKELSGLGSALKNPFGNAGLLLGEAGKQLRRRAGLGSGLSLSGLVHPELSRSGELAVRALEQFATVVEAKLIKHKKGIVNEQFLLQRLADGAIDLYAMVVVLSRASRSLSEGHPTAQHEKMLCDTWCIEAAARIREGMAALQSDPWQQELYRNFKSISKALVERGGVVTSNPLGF
UniProt Q7Z591: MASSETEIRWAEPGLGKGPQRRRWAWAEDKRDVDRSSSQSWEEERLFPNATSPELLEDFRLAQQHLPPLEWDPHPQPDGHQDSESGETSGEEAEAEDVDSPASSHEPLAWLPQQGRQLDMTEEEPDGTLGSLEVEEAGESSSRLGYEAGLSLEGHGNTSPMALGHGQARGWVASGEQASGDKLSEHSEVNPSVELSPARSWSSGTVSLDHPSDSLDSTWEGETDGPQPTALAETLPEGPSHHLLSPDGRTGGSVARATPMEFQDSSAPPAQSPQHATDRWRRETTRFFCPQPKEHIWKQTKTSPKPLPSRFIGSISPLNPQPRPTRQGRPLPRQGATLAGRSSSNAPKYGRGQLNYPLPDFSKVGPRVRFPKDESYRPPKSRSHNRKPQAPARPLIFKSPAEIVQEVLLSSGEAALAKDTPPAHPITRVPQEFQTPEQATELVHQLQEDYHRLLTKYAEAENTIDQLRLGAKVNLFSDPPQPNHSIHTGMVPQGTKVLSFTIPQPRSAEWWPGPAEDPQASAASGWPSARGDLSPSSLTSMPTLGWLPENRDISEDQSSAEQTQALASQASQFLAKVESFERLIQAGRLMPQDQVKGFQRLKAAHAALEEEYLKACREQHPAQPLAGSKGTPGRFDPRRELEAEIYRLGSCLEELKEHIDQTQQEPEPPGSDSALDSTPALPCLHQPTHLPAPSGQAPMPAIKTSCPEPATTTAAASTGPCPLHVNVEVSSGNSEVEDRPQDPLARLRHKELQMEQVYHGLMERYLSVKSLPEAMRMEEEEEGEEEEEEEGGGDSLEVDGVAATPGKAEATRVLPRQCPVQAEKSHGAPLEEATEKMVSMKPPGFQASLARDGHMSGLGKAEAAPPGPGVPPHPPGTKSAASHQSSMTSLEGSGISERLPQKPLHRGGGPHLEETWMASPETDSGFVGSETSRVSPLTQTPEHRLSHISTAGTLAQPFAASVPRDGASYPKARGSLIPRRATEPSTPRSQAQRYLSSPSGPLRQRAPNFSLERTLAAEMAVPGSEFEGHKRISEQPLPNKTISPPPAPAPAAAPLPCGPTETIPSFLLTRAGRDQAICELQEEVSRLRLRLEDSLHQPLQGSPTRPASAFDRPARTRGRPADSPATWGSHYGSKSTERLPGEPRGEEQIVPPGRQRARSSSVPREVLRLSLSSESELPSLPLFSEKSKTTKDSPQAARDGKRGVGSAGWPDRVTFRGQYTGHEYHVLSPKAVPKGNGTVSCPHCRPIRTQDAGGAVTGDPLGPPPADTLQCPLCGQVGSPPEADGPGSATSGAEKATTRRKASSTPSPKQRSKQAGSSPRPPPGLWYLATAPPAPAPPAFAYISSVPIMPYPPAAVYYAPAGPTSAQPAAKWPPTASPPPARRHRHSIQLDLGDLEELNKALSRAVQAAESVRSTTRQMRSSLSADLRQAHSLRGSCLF
UniProt P02771: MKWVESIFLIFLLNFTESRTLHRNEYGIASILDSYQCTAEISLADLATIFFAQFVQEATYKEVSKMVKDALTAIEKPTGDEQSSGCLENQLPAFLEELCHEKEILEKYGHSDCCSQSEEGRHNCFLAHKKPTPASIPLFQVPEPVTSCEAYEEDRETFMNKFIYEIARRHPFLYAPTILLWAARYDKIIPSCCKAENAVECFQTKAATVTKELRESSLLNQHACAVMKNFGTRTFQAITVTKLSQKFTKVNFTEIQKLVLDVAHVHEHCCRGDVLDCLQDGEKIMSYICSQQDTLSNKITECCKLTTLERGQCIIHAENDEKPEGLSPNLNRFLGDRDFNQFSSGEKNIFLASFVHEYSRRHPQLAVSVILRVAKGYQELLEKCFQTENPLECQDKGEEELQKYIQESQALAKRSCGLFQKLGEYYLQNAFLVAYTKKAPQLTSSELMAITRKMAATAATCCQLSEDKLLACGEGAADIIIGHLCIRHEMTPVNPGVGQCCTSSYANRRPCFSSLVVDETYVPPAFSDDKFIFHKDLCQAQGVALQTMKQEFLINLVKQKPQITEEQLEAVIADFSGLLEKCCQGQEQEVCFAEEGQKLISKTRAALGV
UniProt O14639: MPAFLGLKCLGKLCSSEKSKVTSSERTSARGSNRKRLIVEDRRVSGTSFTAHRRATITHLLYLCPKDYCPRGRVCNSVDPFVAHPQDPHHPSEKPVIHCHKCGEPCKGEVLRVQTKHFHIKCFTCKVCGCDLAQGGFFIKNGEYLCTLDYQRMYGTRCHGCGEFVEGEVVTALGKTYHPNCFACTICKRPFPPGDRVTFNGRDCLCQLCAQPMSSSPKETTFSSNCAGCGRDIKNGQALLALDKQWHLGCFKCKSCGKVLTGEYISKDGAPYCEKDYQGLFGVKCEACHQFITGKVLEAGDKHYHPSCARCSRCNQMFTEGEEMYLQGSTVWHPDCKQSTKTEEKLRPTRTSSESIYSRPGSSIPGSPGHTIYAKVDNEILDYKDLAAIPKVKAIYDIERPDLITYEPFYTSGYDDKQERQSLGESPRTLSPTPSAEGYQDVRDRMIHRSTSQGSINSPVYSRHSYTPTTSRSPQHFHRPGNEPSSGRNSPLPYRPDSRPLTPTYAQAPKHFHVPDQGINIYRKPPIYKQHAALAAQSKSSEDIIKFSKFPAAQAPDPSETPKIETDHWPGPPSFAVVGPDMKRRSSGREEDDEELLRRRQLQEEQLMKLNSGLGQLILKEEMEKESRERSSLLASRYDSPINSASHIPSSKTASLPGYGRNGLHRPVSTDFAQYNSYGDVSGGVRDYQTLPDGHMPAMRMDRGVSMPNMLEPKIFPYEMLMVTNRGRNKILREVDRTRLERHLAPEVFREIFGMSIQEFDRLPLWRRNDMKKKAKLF
UniProt Q12904: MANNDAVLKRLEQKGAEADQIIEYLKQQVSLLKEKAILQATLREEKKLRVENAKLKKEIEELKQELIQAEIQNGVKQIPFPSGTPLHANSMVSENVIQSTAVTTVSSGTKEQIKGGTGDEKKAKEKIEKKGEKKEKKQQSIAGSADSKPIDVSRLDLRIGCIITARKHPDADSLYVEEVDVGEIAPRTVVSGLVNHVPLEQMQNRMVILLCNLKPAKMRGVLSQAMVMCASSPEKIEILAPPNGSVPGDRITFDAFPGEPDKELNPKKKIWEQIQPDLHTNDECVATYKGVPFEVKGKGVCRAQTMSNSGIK

Compound: Nc1nc2c(ncn2[C@@H]2O[C@H](COP(=O)(O)OP(=O)(O)OP(=O)(O)O)[C@@H](O)[C@H]2O)c(=O)[nH]1
Experiment: dose-dependent thermal stabilisation call (2D-TPP, DLPTP, 10% FDR) (binary (1 = stabilised)); higher = stabilised by the compound
Details: system: Jurkat gel-filtered lysate; concentration range 1-500 µM

Row | Target | dose-dependent thermal stabilisation call
1 | AGGF1 (UniProt Q8N302) | inactive: 0
2 | ARHGAP10 (UniProt A1A4S6) | inactive: 0
3 | ADO (UniProt Q96SZ5) | inactive: 0
4 | AP2M1 (UniProt Q96CW1) | inactive: 0
5 | ACADVL (UniProt P49748) | inactive: 0
6 | AKNA (UniProt Q7Z591) | inactive: 0
7 | AFP (UniProt P02771) | inactive: 0
8 | ABLIM1 (UniProt O14639) | inactive: 0
9 | AIMP1 (UniProt Q12904) | inactive: 0
